These are yes or no findings as the source states them, for the method shown. In cells and extracts the contact can be indirect. Binding calls can cover weak binding; strength is not graded here. Tags and fused reporters may be left off the sequences shown.
Target: T1, TMEM98-V5 (mouse) (UniProt Q91X86)
T1 sequence: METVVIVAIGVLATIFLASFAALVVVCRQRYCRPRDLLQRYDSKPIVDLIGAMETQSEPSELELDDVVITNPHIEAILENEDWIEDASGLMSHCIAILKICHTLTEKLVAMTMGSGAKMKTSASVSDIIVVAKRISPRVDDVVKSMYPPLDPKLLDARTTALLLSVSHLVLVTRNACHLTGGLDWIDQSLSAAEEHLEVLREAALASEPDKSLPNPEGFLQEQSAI
Experiment: co-IP; HEK293T cells transiently co-transfected (5 μg of each plasmid), lysed after 24 hours in Cell Lysis Buffer; anti-V5 agarose affinity gel at 4°C overnight; Western blot with anti-MYC, anti-FLAG and anti-V5

binding | Substance
binds | C-terminal part of MYRF tagged with FLAG (cleaved MYC-MYRF-FLAG) (domain or fragment)
binds | C-terminal part of MYRFΔ19 tagged with FLAG (cleaved MYC-MYRFΔ19-FLAG) (domain or fragment)
binds | MYC-MYRFΔ19-FLAG (intact)
no binding | N-terminal part of MYRF tagged with MYC (cleaved MYC-MYRF-FLAG) (domain or fragment)
no binding | N-terminal part of MYRFΔ19 tagged with MYC (cleaved MYC-MYRFΔ19-FLAG) (domain or fragment)

Source: PMC7153906
